Reference: US20160220710A1, “COMPOSITIONS AND METHODS FOR DELIVERING PHARMACEUTICAL AGENTS” (THE REGENTS OF THE UNIVERSITY OF MICHIGAN, priority 2015, published 2016)

Key:
[1] = PA microscopy of liver and spleen cryosections of CFZ-fed mice; conditions: 532 nm
[2] = PA tomography (PAT) of gelatin phantoms; conditions: excitation 532 nm; 2 mM in DMSO or 2 mM equivalent in PBS

For `CC(C)/N=c1\cc2n(-c3ccc(Cl)cc3)c3ccccc3nc-2cc1Nc1ccc(Cl)cc1` [CFZ, 3-(p-chloroanilino)-10-(p-chlorophenyl)-2, 10-dihydro-2-isopropyliminophenazine], the “Contrast-to-Noise Ratio (CNR)” value ([1]; liver) was 22.4 dB, the PA signal intensity ([1]; liver) was 36.0±12.5 mV and the “Contrast-to-Noise Ratio (CNR)” value ([1]; spleen) was 24.6 dB. The PA signal intensity ([1]; spleen) was 45.9±21.2 mV and the PAT signal [2] was “minimally detected”.
For `CC(C)N=c1cc2n(-c3ccc(Cl)cc3)c3ccccc3nc-2cc1Nc1ccc(Cl)cc1.Cl` [CFZ-A], the PAT signal [2] was “strong PAT signal”.
For `CC(C)N=c1cc2n(-c3ccc(Cl)cc3)c3ccccc3nc-2cc1Nc1ccc(Cl)cc1.Cl` [CFZ-HCl], the PAT signal [2] was “significant PAT signals”.
